According to PubChem BioAssay (EPA / NIEHS):
Inconclusive means that the source gave no clear call. Such entries were picked first, then a sample of the others. A potency beside an inconclusive call is a rough fit, not a confirmed value. The source made the active and inactive calls. The calls were made as follows: active = hit-call score of the fitted dose curve at least 0.9, where 1 is the maximum; inconclusive = response in the unintended direction; inactive = score below 0.9.

Sequences of proteins named here, by UniProt entry; tags and fusion partners are left off. A change or cut given only in a name is not applied to a line headed by its entry.
UniProt P20813: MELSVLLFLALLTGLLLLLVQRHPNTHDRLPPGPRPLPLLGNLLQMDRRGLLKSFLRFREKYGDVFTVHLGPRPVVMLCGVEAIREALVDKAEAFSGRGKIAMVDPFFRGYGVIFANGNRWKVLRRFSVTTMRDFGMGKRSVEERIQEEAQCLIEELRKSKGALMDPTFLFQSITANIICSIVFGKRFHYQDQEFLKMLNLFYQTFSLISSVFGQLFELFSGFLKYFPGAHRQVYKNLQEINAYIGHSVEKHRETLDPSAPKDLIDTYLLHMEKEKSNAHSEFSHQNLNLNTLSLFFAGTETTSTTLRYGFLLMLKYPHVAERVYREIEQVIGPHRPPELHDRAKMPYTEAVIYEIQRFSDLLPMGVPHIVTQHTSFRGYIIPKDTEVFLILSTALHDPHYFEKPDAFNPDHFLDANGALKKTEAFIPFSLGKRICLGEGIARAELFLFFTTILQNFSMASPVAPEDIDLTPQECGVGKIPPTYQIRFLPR

What follows are molecules tested on Cytochrome P450 2B6 (Homo sapiens) (UniProt P20813) (assay: CLD_CYP2B6_6hr: CellzDirect (CLD) Gene Expression Assay for xenobiotic metabolism (CYP2B6) at 6 hours (AID 2283677);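 also: actives raise CYP2B6 transcript above DMSO baseline so AC50 marks an inducer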).
Procedure: CLD_6hr is a cell-based, multiplexed-readout assay that uses hepatocyte, a human liver primary cell, with measurements taken at 6 hours after chemical dosing in a 96-well plate.CLD_CYP2B6_6hr is one of 16 assay component(s) measured or calculated from the CLD_6hr assay. It is designed to make measurements of mRNA induction, a form of inducible reporter, as detected with chemiluminescence signals by Quantitative Nuclease Protection Assay (qNPA) technology.Data from the assay component CLD_CYP2B6_6hr was analyzed at the endpoint, CLD_CYP2B6_6hr, in the positive analysis fitting direction relative to DMSO as the negative control and baseline of activity. Using a type of inducible reporter, gain-of-signal activity can be used to understand changes in the reporter gene as they relate to the gene CYP2B6. Furthermore, this assay endpoint can be referred to as a primary readout. To generalize the intended target to other relatable targets, this assay endpoint is annotated to the cyp intended target family, where subfamily is xenobiotic metabolism.
Human hepatocyte cultures were treated daily for two consecutive days with fresh dosing solutions containing appropriate concentrations of the 320 ToxCast chemicals (chemical identities were blinded to CellzDirect and other ToxCast collaborators), vehicle control (0.2% DMSO), and positive control inducers as summarized in Table 1. Due to the large number of treatment groups and chemicals examined, the ToxCast chemicals were divided into two groups (spanning two independent cultures of hepatocytes from separate donor preparations (Hu778: ToxCast plates 1 and 2; Hu776: ToxCast plates 3 and 4). Each preparation of human hepatocyte cultures was treated with respective vehicle control, medium only control, set of six positive controls/reference chemicals for the five hepatic receptor pathways, and a subset of eight of the ToxCast chemicals (indoxacarb, pyrithiobac-sodium, norflurazon, cyhalofop-butyl, methomyl, thiram, acetochlor, and propiconazole). These replicate data, coupled with internal replicates designed within the blinded ToxCast chemical library, provided additional data to evaluate interindividual differences between hepatocyte preparations and their potential impact on chemical profiles.Cell morphology and integrity were evaluated using phase-contrast microscopy as an indicator of hepatocyte cell health (Tyson & Green, 1987). Cultures for each treatment group (i.e., media, vehicle [0.2% DMSO], positive control inducers [multiple concentrations], and the ToxCast chemicals [multiple concentrations]) were observed and cell morphology was assessed relative to vehicle control cultures at each harvest time point (0, 6, 24, or 48 h). […] Images were evaluated at the conclusion of the study to assess changes in cell integrity and account for the effects of chemical exposure on uncharacteristic changes in concentration-dependent gene expression profiles. The results from these determinations of apparent cytotoxicity were annotated (yes/no) alongside the corresponding qNPA data for reference.At the conclusion of each treatment period, hepatocyte cultures (96-well) were washed with 1 volume of HBSS, lysed by addition of 25 ul ArrayPlate lysis buffer (HTG, Tucson, AZ), and 70 ul/well of Denaturation Oil, denatured by incubation at 95C for 10 min, and frozen at approximately -70C until analysis by nuclease protection assay (qNPA) (Roberts et al., 2007). For qNPA analysis, cell lysates were thawed at 50C for approximately 30 min, qNPA probes were added, and samples were incubated at 95C for 10 min to begin the detection process by denaturing the target RNA, dissociating the duplexes and secondary structure hybridization. At the conclusion of the hybridization period, S1 nuclease reagent was added to each sample to digest all nonprotected nucleotides at 50C for 60-90 min. […]

Row | Compound | AC50 | outcome
1 | O=C(O)c1nc(Cl)ccc1Cl | inconclusive: 0.4 nM | 
2 | O=C(O)C(F)(F)C(F)(F)C(F)(F)C(F)(F)C(F)(F)C(F)(F)C(F)(F)F |  | inactive
3 | COP(=O)(OC)O/C(C)=C/C(=O)N(C)C |  | inactive
4 | CC(Oc1cccc(Cl)c1)C(=O)O (centres undefined) | inconclusive: 0.4 nM | 
5 | CCCC(=NOCC)C1=C(O)CC(CC(C)SCC)CC1=O (centres undefined) |  | inactive
6 | CN1COCN(Cc2cnc(Cl)s2)C1=N[N+](=O)[O-] | inconclusive: 0.4 nM | 
7 | COCc1cnc(C2=NC(C)(C(C)C)C(=O)N2)c(C(=O)O)c1 (centres undefined) | inconclusive: 0.401 nM | 
8 | CS/C(C)=N/OC(=O)N(C)SN(C)C(=O)O/N=C(\C)SC | inconclusive: 10.5 nM | 
9 | CC(C)C1(C)N=C(c2ncccc2C(=O)O)NC1=O (centres undefined) | active: 0.54 nM | 
10 | C=C(C)[C@H]1Cc2c(ccc3c2O[C@@H]2COc4cc(OC)c(OC)cc4[C@@H]2C3=O)O1 | inconclusive: 71.1 nM | 
11 | COC(=O)N(OC)c1ccccc1COc1ccn(-c2ccc(Cl)cc2)n1 | inconclusive: 1900 nM | 
12 | CC(COc1ccc(Oc2ccccc2)cc1)Oc1ccccn1 (centres undefined) | active: 3970 nM | 
13 | Cc1ccccc1CO[C@@H]1C[C@@]2(C(C)C)CC[C@]1(C)O2 | inconclusive: 3610 nM | 
14 | Nc1cnn(-c2ccccc2)c(=O)c1Cl |  | inactive
15 | O=C(NC(=O)c1c(F)cccc1F)Nc1ccc(OC(F)(F)C(F)OC(F)(F)F)c(Cl)c1 (centres undefined) |  | inactive
16 | CCOC(=O)CC(SP(=S)(OC)OC)C(=O)OCC (centres undefined) |  | inactive
17 | O=c1ccc(=O)[nH][nH]1 | inconclusive: 20000 nM | 
18 | CC(C)Nc1nc(Cl)nc(NC(C)C)n1 | active: 2470 nM | 
19 | COP(=O)(NC(C)=O)SC (centres undefined) | inconclusive: 15.7 nM | 
20 | CCOP(=O)(OCC)Oc1cc(C)nc(C(C)C)n1 | active: 20000 nM | 
21 | CC1COC(Cn2cncn2)(c2ccc(Oc3ccc(Cl)cc3)cc2Cl)O1 (centres undefined) |  | inactive
22 | N#CN | inconclusive: 0.4 nM | 
23 | O=C(O)c1cc(Oc2ccc(C(F)(F)F)cc2Cl)ccc1[N+](=O)[O-] |  | inactive
24 | O=P(O)(O)CCCl | inconclusive: 0.0171 nM | 

Individual results from the list.
N#CN – AC50: inconclusive: 0.4 nM
C=C(C)[C@H]1Cc2c(ccc3c2O[C@@H]2COc4cc(OC)c(OC)cc4[C@@H]2C3=O)O1 – AC50: inconclusive: 71.1 nM
